These are yes or no findings as the source states them, for the method shown. In cells and extracts the contact can be indirect. These calls come from enrichment with a bait or labelling near it, and not all partners need be listed.
Target: IL-33Δ34–miniTurbo fusion construct (human)
Assay: proximity labelling; miniTurbo fusions in HBE-1 cells, 500 µM biotin for 2 hours, streptavidin magnetic beads; labelled proteins identified by mass spectrometry proteomics (replicates 1-3)

binding: binds
B1: CCT complex subunit CCT2 (protein, UniProt P78371 1-535)
chain: MASLSLAPVNIFKAGADEERAETARLTSFIGAIAIGDLVKSTLGPKGMDKILLSSGRDASLMVTNDGATILKNIGVDNPAAKVLVDMSRVQDDEVGDGTTSVTVLAAELLREAESLIAKKIHPQTIIAGWREATKAAREALLSSAVDHGSDEVKFRQDLMNIAGTTLSSKLLTHHKDHFTKLAVEAVLRLKGSGNLEAIHIIKKLGGSLADSYLDEGFLLDKKIGVNQPKRIENAKILIANTGMDTDKIKIFGSRVRVDSTAKVAEIEHAEKEKMKEKVERILKHGINCFINRQLIYNYPEQLFGAAGVMAIEHADFAGVERLALVTGGEIASTFDHPELVKLGSCKLIEEVMIGEDKLIHFSGVALGEACTIVLRGATQQILDEAERSLHDALCVLAQTVKDSRTVYGGGCSEMLMAHAVTQLANRTPGKEAVAMESYAKALRMLPTIIADNAGYDSADLVAQLRAAHSEGNTTAGLDMREGTIGDMAILGITESFQVKRQVLLSAAEAAEVILRVDNIIKAAPRKRVPDHHPC

— article PMC12333954
